Test results: PubChem BioAssay AID1671190 (National Center for Advancing Translational Sciences (NCATS), 2021)
In all, about 580,000 compounds went through this assay and about 6,100 (1.1%) were called active. This list was built around the results that the source calls inconclusive (neither active nor inactive); the mix of calls is not that of the screen. The call rests on the fitted dose curve; in most records, active means well fitted inhibition curve with a large enough effect; inconclusive means small, poorly fitted or top-dose-only effect, or another doubt; inactive means no such curve, though single readings can be large or run the other way. Potencies of inconclusive entries are doubtful fits and often do not repeat.

By UniProt entry, the sequences of proteins in these tests, tags left out. Where a name states a change or a piece, a line headed by the entry shows the natural chain unless it says otherwise.
UniProt P18054: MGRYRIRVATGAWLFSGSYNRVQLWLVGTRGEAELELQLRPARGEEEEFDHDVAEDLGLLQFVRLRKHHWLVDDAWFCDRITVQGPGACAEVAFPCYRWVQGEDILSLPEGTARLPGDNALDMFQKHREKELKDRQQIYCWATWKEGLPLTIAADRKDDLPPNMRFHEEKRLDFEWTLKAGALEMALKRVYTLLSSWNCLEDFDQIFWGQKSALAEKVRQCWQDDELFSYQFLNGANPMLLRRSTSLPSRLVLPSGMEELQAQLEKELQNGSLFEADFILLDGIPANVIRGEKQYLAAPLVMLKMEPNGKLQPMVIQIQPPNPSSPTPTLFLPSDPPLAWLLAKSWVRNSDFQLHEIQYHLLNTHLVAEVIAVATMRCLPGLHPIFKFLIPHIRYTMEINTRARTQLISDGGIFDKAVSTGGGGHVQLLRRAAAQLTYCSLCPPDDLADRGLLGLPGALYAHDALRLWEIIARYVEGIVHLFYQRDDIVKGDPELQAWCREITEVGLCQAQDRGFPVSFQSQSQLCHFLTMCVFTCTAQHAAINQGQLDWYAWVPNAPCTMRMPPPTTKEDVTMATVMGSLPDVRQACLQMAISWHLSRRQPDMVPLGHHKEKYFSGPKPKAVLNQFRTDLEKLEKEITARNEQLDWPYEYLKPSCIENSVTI

molecular target: Polyunsaturated fatty acid lipoxygenase ALOX12 (Homo sapiens) (UniProt P18054); test: Primary qHTS assay for inhibitors of human arachidonate 12S-lipoxygenase (ALOX12): Round 2; details: purified 12hLO, xylenol orange hydroperoxide absorbance; activity change, negative = inhibition: at 108 µM (top of the series) unless noted
In short: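 Purified human 12hLO at 150 nM in 25 mM Hepes, 0.01% Triton X-100, pH 7.0, preincubated 15 min at room temperature with compound. Reaction started with 40 uM arachidonic acid, 30 min at room temperature. Hydroperoxide measured by Fe-xylenol orange, 573/405 nm absorbance ratio.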
On the % scale 0 is the no-effect control and ±100 the full control effect; potency means the concentration at half of the fitted maximal effect.

SMILES	activity change, negative = inhibition	Potency
Cc1ccc(C(C)C)c2oc(=O)cc(-c3ccc(-c4ccc(C(F)(F)F)cc4)cc3)c12	inactive: -0.968%	–
O=[N+]([O-])c1c(Nc2ccccc2O)cc(Cl)c2nonc12	–	inconclusive: 50.1 µM [inhibitor, partial curve, poor fit]
COc1ccc2c(c1)CCN=C2C[C@H]1CN(C(=O)NC2CCCCC2)CC[C@H]1CC(=O)O	–	inconclusive: 28.2 µM [inhibitor, partial curve, poor fit]
O=C(c1cc(-c2cnccc2Cl)c2cccn2n1)N1CCN(c2ncccn2)CC1	–	inconclusive: 89.1 µM [inhibitor, partial curve, poor fit]
COC(=O)C(NC(=O)c1ccc(C)cc1)(Nc1cccc(C)n1)C(F)(F)F (configuration not stated)	–	inconclusive: 50.1 µM [inhibitor, partial curve, poor fit]
Cc1ccc(NC(=O)/C(=C/C=C/c2ccccc2)NC(=O)c2ccccc2)cc1	inactive: -15.7%	–
COc1ccc(-c2nn(C)c(=O)c3ccccc23)cc1NC(=O)c1ccccc1	inactive: -2.19%	–
CCC(C)c1ccc(S(=O)(=O)N2CCN(c3ccccn3)CC2)cc1 (configuration not stated)	–	inconclusive: 31.6 µM [inhibitor, partial curve, poor fit]
CN(C)c1cc[n+](CC(=O)Nc2ccc(OC(F)F)cc2)cc1	–	inconclusive: 89.1 µM [inhibitor, partial curve, poor fit]
CC(=O)Nc1ccc(-c2cc(C(=O)O)c3cc4ccccc4cc3n2)cc1	–	inconclusive: 79.4 µM [inhibitor, partial curve, poor fit]
O=c1c2ccccc2nc(N2CCN(c3cccc(Cl)c3)CC2)n1-c1ccccc1	inactive: -17.4%	–
CCCCCCNC(=O)c1cc(N)nc(Cl)c1	–	inconclusive: 44.7 µM [inhibitor, partial curve, poor fit]
CC(=O)Oc1ccccc1C1C[C@]2(C)CC(=O)NC2N1C(C)=O (some centres not stated)	inactive: -8.38%	–
OCCNC(=S)Nc1cccc(F)c1	–	inconclusive: 70.8 µM [inhibitor, partial curve, poor fit]
CCC(=O)Nc1ccccc1N1CCN(c2ccc(F)cc2)CC1	inactive: -1.28%	–
CCC(C(=O)N1CCN(c2ccc(OC)cc2)CC1)n1nc(C)n2c(cc3occc32)c1=O (configuration not stated)	–	inconclusive: 112 µM [inhibitor, partial curve, poor fit]
CN(C)CCNc1ccc2ncn3c4ccc(O)cc4c(=O)c1c23	–	inconclusive: 35.5 µM [inhibitor, partial curve, poor fit]
CCOc1cc(/C=N/NC(=O)c2ccc3c(c2)OCCO3)cc(Br)c1O	–	inconclusive: 50.1 µM [inhibitor, single point]
CCn1c(CC(=O)Nc2ccccc2C)nnc1SCC(=O)NC1CCCC1	inactive: 3.42%	–
CNC(=O)[C@@H]1C[C@H](Sc2nc3ccccc3[nH]2)CN1Cc1ccccc1C(F)(F)F	–	inconclusive: 112 µM [inhibitor, single point]
CN(C)C(C)(C)/C=C/C(O)(c1ccccc1)c1ccccc1	–	inconclusive: 3.16 µM [inhibitor, partial curve, poor fit]

Arranged by length of the SMILES (smallest number first): 3 of the compounds above
SMILES	activity change, negative = inhibition	Potency
CN(C)c1cc[n+](CC(=O)Nc2ccc(OC(F)F)cc2)cc1	–	inconclusive: 89.1 µM [inhibitor, partial curve, poor fit]
O=c1c2ccccc2nc(N2CCN(c3cccc(Cl)c3)CC2)n1-c1ccccc1	inactive: -17.4%	–
COc1ccc2c(c1)CCN=C2C[C@H]1CN(C(=O)NC2CCCCC2)CC[C@H]1CC(=O)O	–	inconclusive: 28.2 µM [inhibitor, partial curve, poor fit]

Carrying on:

SMILES	activity change, negative = inhibition	Potency
c1csc(COc2ccccc2CNC2CCCCC2)c1	–	inconclusive: 50.1 µM [inhibitor, partial curve, poor fit]
CC(=O)Nc1cc(F)ccc1-c1csc(NC(=O)CCc2ccco2)n1	–	inconclusive: 70.8 µM [inhibitor, single point]
O=C(COC(=O)c1cc([N+](=O)[O-])ccc1N1CCOCC1)NCc1ccc(Cl)cc1Cl	inactive: -16.7%	–
COc1ccc(NS(=O)(=O)c2cc3c(cc2C)N(C)CCO3)c(OC)c1	inactive: 14.8%	–
COc1ccc(-c2nnc(NC(=O)CSc3ccccc3)s2)cc1OC	inactive: 17.6%	–
CC(C)(C)OC(=O)N1CCC[C@@H]1C(=O)NCc1ccccc1	inactive: -0.0427%	–
N=C1C(=O)NC(=O)C1c1ccccc1 (configuration not stated)	–	inconclusive: 112 µM [inhibitor, single point]
CC(=O)N1CCN(c2nc3c(s2)CC(C(=O)NCc2ccc(C(C)C)cc2)CC3)CC1 (configuration not stated)	–	inconclusive: 44.7 µM [inhibitor, partial curve]
CC(=O)Nc1sc(N/N=C\c2ccccc2Cl)nc1-c1cccs1	inactive: -28.4%	–
CCCc1cc(=O)[nH]c(Nc2ccc(C)c(O)c2)n1	inconclusive: -36.5% [inhibitor]	–
CCCCOc1ccc(C(=O)Nc2nc3c(s2)CC(C)CC3)cc1 (configuration not stated)	inactive: -16.8%	–
Cc1ccc(Cl)cc1Nc1nc(-c2sc(NC(=O)C(C)(C)C)nc2C)cs1	–	inconclusive: 50.1 µM [inhibitor, partial curve, poor fit]
CCc1cc(N2CCN(CC3(O)CCCNC3)CC2)ncn1 (configuration not stated)	–	inconclusive: 3.55 µM [inhibitor, full curve]
Cc1cccc(Nc2nc(-c3ccc(F)c(C)c3)cs2)n1	–	inconclusive: 56.2 µM [inhibitor, partial curve, poor fit]
COc1ccc(-c2csc(Nc3ccc(S(=O)(=O)Nc4cc(C)on4)cc3)n2)cc1	–	inconclusive: 44.7 µM [inhibitor, partial curve, poor fit]
C[C@@H]1CC[C@@]23COC(=O)C2=CCC[C@@H]3[C@@]1(C)CC/C(=C/CO)CO	–	inconclusive: 79.4 µM [inhibitor, single point]
O=C1CO[C@H]2CCN(CCCc3ccccc3)CC[C@@H]2N1c1ccccc1	–	inconclusive: 28.2 µM [inhibitor, full curve]
Brc1ccc(CN2CCC(c3nc4ccncc4[nH]3)C2)cc1 (configuration not stated)	–	inconclusive: 79.4 µM [inhibitor, single point]
COc1ccccc1N1CCN(S(=O)(=O)c2c(C)sc3ncn(CC(=O)NCCN(C)C)c(=O)c23)CC1	–	inconclusive: 112 µM [inhibitor, single point]
O=C(C1CC1(c1ccccc1)c1ccccc1)N1CCOCC1 (configuration not stated)	–	inconclusive: 126 µM [inhibitor, partial curve, poor fit]
O=C(NCCC1=CCCCC1)c1ccc2c(c1)N(Cc1ccc(Cl)cc1)C(=O)c1ccccc1S2(=O)=O	–	inconclusive: 7.08 µM [inhibitor, full curve, poor fit]
